The supplement of paper PMC10849652
The list shows a part of the results.

Sequences of proteins named here, by UniProt entry; tags and fusion partners are left off. A change or cut given only in a name is not applied to a line headed by its entry.
UniProt Q6IAA8, whole entry, looked up: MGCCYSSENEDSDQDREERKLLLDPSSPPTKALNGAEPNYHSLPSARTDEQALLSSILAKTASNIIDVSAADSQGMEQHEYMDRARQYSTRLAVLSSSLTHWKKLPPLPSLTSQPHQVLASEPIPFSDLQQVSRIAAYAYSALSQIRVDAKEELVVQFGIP
UniProt P50053: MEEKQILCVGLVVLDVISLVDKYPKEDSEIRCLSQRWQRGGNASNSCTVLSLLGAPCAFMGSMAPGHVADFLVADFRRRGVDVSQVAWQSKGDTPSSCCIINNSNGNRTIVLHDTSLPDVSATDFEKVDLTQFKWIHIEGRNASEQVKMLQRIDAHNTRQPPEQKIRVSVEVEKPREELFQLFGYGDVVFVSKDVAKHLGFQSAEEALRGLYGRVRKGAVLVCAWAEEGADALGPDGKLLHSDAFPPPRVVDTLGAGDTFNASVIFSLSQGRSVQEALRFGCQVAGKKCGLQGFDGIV
UniProt Q4G0J3: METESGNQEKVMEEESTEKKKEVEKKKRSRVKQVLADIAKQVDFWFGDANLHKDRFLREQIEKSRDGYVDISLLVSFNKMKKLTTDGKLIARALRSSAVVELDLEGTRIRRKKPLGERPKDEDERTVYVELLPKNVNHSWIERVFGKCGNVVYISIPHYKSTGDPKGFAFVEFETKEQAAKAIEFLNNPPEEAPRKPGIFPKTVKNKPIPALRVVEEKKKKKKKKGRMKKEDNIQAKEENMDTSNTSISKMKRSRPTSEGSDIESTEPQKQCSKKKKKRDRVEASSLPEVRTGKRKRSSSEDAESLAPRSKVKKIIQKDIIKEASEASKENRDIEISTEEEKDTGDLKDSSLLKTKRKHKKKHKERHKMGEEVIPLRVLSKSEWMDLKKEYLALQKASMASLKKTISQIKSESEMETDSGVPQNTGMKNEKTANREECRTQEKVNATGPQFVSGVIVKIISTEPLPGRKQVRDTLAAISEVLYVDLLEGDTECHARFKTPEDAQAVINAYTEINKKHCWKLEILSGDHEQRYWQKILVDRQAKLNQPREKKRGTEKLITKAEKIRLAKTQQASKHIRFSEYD
UniProt Q9H9P8: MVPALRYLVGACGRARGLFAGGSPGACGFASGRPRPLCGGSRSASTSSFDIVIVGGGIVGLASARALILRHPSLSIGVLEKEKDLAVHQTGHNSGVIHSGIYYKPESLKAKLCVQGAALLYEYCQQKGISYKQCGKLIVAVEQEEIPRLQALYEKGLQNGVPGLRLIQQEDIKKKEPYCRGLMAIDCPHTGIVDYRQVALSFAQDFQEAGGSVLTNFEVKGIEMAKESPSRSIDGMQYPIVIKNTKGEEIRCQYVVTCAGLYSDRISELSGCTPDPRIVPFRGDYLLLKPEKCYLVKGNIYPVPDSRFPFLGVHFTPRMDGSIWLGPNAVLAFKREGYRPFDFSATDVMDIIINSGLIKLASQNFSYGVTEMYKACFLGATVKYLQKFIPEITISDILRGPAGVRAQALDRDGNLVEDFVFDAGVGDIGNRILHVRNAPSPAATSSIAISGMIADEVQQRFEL
UniProt Q8IVT5: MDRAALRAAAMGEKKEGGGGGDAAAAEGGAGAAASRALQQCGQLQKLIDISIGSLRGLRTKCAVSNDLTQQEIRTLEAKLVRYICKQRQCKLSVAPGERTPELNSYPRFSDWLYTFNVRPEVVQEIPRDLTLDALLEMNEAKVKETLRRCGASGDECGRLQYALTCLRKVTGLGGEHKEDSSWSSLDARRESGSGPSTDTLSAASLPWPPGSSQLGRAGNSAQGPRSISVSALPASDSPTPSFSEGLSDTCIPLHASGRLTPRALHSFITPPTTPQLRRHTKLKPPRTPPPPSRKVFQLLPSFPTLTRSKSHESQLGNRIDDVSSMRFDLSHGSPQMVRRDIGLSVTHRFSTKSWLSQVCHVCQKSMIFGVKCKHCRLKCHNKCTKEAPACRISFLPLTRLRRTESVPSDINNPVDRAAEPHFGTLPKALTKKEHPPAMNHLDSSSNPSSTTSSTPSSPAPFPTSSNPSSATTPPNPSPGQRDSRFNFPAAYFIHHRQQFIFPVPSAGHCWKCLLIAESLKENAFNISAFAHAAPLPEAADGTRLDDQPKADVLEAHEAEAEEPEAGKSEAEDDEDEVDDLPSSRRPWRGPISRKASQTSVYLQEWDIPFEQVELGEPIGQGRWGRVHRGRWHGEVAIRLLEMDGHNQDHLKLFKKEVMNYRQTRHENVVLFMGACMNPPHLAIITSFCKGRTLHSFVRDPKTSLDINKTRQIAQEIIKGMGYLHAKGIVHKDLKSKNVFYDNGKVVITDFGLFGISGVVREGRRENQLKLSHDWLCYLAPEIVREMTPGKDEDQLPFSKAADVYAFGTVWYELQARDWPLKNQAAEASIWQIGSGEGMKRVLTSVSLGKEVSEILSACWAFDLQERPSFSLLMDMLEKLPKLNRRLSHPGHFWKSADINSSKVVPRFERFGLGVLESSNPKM
UniProt P13473: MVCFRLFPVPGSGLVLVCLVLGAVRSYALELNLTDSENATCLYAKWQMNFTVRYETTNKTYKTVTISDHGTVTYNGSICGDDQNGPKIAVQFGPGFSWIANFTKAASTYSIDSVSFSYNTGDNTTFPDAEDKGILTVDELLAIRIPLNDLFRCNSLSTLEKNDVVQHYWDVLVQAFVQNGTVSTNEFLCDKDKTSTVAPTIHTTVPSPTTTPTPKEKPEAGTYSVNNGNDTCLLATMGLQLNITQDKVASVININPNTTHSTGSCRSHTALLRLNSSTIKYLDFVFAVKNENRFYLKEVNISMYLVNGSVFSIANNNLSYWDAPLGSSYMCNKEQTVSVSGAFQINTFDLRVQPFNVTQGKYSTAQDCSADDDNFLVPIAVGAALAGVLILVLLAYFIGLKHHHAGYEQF
UniProt Q92945: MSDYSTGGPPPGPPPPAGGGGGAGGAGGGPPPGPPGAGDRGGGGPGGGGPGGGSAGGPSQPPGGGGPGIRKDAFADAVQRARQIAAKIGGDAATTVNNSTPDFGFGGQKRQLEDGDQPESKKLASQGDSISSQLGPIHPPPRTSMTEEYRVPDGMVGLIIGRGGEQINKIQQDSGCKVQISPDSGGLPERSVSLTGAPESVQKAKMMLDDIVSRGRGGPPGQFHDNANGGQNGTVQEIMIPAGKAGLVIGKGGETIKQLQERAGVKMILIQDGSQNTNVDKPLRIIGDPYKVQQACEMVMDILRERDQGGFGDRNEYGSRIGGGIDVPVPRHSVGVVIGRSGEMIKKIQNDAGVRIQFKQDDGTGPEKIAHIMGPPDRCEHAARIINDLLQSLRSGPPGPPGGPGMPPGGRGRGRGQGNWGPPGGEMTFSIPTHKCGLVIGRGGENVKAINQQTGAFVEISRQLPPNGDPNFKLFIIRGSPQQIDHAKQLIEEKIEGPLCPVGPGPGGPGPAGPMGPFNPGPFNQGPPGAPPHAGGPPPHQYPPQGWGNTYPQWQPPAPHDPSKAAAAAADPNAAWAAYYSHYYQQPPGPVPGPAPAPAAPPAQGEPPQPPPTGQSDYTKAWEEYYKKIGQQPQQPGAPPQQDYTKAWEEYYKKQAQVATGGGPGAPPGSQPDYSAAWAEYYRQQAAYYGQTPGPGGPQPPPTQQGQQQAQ
UniProt Q9Y664: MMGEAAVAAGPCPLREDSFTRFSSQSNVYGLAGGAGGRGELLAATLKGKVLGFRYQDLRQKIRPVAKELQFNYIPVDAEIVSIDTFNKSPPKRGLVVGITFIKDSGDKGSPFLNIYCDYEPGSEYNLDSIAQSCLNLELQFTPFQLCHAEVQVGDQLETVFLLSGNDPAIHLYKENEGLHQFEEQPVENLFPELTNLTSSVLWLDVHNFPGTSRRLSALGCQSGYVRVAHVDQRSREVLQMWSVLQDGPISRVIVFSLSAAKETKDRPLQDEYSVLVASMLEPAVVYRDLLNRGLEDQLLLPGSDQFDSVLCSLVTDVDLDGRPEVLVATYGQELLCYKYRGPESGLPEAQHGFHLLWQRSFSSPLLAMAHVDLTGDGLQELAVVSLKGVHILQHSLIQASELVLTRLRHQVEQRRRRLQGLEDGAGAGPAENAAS
UniProt Q9Y2Q5, whole entry, looked up: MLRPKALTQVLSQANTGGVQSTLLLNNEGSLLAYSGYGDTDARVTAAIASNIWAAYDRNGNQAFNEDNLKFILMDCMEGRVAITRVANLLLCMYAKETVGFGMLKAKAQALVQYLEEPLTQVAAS
UniProt Q02241: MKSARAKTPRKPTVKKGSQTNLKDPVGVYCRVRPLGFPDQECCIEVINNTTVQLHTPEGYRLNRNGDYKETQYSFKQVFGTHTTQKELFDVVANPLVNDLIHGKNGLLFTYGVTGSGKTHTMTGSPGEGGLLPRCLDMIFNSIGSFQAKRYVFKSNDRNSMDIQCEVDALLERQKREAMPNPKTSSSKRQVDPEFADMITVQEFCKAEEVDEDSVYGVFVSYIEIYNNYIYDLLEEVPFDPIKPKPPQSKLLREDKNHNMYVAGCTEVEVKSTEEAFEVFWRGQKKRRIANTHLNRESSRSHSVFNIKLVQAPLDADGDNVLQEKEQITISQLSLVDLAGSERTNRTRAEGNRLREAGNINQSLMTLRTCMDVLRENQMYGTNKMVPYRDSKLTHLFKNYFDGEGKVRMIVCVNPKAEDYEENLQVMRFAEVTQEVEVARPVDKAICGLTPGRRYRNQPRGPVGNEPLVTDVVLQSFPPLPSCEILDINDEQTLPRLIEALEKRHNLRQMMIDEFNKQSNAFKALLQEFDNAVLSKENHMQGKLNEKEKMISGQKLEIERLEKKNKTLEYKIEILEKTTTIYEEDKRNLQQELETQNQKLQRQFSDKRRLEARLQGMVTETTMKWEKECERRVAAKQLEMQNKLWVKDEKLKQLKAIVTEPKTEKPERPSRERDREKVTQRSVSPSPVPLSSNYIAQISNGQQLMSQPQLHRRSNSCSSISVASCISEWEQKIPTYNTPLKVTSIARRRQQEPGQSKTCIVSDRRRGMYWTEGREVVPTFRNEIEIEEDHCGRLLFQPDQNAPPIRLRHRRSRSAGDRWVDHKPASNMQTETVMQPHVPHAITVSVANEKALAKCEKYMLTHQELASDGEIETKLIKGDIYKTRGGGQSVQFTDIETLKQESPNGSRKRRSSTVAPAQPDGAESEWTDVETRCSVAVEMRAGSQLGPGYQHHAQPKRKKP
UniProt P52294, whole entry, looked up: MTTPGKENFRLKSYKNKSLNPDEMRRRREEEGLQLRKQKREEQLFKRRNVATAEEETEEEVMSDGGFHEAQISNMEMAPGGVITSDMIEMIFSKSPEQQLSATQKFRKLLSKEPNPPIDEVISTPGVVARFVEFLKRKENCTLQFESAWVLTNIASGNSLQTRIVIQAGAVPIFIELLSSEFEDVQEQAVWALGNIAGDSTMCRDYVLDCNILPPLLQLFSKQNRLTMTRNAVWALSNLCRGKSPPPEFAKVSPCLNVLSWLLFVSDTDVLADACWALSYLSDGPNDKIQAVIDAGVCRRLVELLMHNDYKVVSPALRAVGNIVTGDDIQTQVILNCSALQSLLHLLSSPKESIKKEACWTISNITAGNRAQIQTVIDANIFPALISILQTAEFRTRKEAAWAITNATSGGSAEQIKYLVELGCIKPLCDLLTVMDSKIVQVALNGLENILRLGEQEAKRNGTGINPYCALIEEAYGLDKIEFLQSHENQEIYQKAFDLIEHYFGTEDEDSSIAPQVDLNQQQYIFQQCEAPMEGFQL
UniProt Q9H0B6: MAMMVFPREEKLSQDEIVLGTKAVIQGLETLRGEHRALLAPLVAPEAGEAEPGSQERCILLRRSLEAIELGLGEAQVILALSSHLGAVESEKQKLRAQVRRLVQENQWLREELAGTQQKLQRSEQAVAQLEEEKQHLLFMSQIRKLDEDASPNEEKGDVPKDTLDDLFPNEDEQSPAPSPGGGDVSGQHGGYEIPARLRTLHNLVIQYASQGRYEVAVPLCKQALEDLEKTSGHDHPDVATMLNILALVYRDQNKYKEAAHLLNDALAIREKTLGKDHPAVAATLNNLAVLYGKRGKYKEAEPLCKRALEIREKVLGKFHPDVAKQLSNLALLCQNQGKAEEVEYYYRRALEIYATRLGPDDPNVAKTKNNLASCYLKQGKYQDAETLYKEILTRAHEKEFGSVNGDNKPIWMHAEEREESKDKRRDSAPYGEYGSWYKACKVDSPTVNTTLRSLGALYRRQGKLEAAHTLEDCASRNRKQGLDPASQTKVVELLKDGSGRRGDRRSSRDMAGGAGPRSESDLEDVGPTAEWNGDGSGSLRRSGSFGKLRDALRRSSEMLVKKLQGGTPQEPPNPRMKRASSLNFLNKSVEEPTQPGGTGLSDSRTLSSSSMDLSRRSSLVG
UniProt Q9Y448: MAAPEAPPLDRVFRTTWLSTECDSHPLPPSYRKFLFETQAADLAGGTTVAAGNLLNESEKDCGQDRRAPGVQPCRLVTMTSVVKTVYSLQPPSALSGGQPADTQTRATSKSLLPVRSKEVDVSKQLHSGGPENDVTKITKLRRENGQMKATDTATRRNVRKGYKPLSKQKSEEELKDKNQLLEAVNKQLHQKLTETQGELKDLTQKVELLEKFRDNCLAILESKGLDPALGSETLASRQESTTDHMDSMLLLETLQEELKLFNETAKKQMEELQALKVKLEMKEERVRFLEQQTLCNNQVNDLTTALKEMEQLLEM

The targets below were run with Cc1cccc(CC(=O)N2CCc3c2ccc(-c2cn(C)c4ncnc(N)c24)c3F)n1 (assay: log2 fold change, soluble protein after heating vs DMSO (PISA); higher = thermal stabilisation; K562 lysate, 10 uM; active = over 0.2 and 3.5 SD of the protein, either way, in both replicates (recomputed)).
Procedure, shortened: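 Following dounce homogenisation of K562 pellets in PBS pH 7.4 with 1 mM MgCl2, crude extract at 1 mg/mL protein was incubated for 30 min with 10 μM compound. Aliquots were then heated for 3 min over 48°C-58°C and pooled, NP-40 was added to 0.5% at 4°C, and soluble protein was recovered as the supernatant at 21,000xg for 90 min. Channel-sum-equalised TMTpro 16plex LC-MS/MS quantified this protein. Each value, from duplicates, is a log-two fold change in thermal stability relative to solvent controls.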

log2 fold change, inactive:
LAMTOR1 (UniProt Q6IAA8) 0.004
KHK isoform 2 (UniProt P50053) -0.163
KNL1 (UniProt Q8NG31) 0.016
LAMB1 (UniProt P07942) 0.011
KIF4A (UniProt O95239) -0.006
KHDRBS1 (UniProt Q07666) -0.031
L1RE1 (UniProt Q9UN81) 0.058
LARP7 isoform 3 (UniProt Q4G0J3) 0.009
KLC4 isoform 3 (UniProt Q9NSK0) 0.001
L2HGDH (UniProt Q9H9P8) 0.049
KSR1 (UniProt Q8IVT5) -0.156
KIAA0930 isoform 2 (UniProt Q6ICG6) 0.191
LACTB2 (UniProt Q53H82) -0.003
LANCL1 (UniProt O43813) 0.033
LAMP2 (UniProt P13473) 0.018
KHSRP (UniProt Q92945) -0.036
KDM8 isoform 3 (UniProt Q8N371) 0.039
KLHL18 (UniProt O94889) 0.056
KPTN (UniProt Q9Y664) 0.016
KIF15 (UniProt Q9NS87) 0.033
KYAT3 (UniProt Q6YP21) 0.071
KIF3A (UniProt Q9Y496) 0.039
KTI12 (UniProt Q96EK9) 0.085
LAMTOR2 (UniProt Q9Y2Q5) 0.128
KIF5B (UniProt P33176) -0.048
KIF23 isoform 2 (UniProt Q02241) 0.013
KPNA1 (UniProt P52294) 0.028
KPNA3 (UniProt O00505) 0.098
KPNA2 (UniProt P52292) 0.05
LAMTOR5 (UniProt O43504) -0.111
KNOP1 (UniProt Q1ED39) -0.011
KIF5A (UniProt Q12840) -0.025
KDM5B isoform 2 (UniProt Q9UGL1) 0.29
KIAA1191 (UniProt Q96A73) 0.006
KLC2 (UniProt Q9H0B6) 0.074
KIF13A isoform 4 (UniProt Q9H1H9) 0.018
KNSTRN (UniProt Q9Y448) -0.056
KRBA1 (UniProt A5PL33) 0.206
KXD1 (UniProt Q9BQD3) -0.008

Eleven neighbouring entries out of the list so far:
log2 fold change, inactive:
KPTN (UniProt Q9Y664) 0.016
KIF15 (UniProt Q9NS87) 0.033
KYAT3 (UniProt Q6YP21) 0.071
KIF3A (UniProt Q9Y496) 0.039
KTI12 (UniProt Q96EK9) 0.085
LAMTOR2 (UniProt Q9Y2Q5) 0.128
KIF5B (UniProt P33176) -0.048
KIF23 isoform 2 (UniProt Q02241) 0.013
KPNA1 (UniProt P52294) 0.028
KPNA3 (UniProt O00505) 0.098
KPNA2 (UniProt P52292) 0.05
